A short description of this data set: general procedure: peptide synthesis; chloro trityl chloride resin. Conditions: whole synthesis.

End groups of sequences in plain letters are not given here.

As to GFYFNKAAGYGSSSRR, the crude mass turned out to be 1.18 g. The sequence further yielded a crude yield (scale of the general procedure 700 mg resin) of 69.6%.

(Values after patent publication US8263095B2 (Caregen Co., Ltd., priority 2006, dated 2012).)
